PubChem BioAssay AID652259 | Drosophila RNAi Screening Center | 2013

Screen: 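Genome-wide hunt for genes that control Wingless pathway activity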 (primary screen)
Cells: Drosophila clone 8 imaginal disc epithelial cells
Reagent: long dsRNA against Drosophila genes
Treatment: pathway stimulated by co-transfected Wingless expression plasmid
Read-out: 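Dual luciferase reads per well after Wingless plasmid stimulation: reporter firefly light and Renilla control light; activity is firefly divided by Renilla, a ratio not deposited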
Direction: firefly reporter light: higher = more Wg reporter light, before normalisation; Renilla control light: higher = more transfected or surviving cells
Call rule: 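a knock-down is a candidate when at least two out of four statistical tests show it departing from its plate mean; one test alone signals a weak candidate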
Calls: active = candidate regulator (raises or lowers reporter); inactive = not a candidate
The screen tested about 22,000 reagents; below is an unselected part of those with a known target gene and a result. Over the whole deposit, 233 (1.1%) were called active. 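Light values are raw, unnormalised plate reads; the ratio scores behind the reporter calls were not deposited.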 Names joined by + are all predicted targets of the reagent. Not given: the amount of reagent, the time to read-out, the dose of the treatment.

| gene | PubChem SID | reporter change call, replicate 1 | firefly reporter light, replicate 1 | firefly reporter light, replicate 2 | Renilla control light, replicate 1 | Renilla control light, replicate 2 | Outcome |
| --- | --- | --- | --- | --- | --- | --- | --- |
| HUWE1 | SID104199881 | – | 24384 | – | 10806 | – | inactive |
| CG17855 | SID104182430 | – | 2401 | 10530 | 896 | 3276 | inactive |
| CG10962 | SID104198213 | – | 2788 | 4589 | 856 | 1578 | inactive |
| CG31999 | SID104196923 | – | 19201 | – | 12004 | – | inactive |
| CG31999 | SID104196925 | – | 18373 | – | 12673 | – | inactive |
| dtn | SID104197731 | – | 18048 | – | 7792 | – | inactive |
| Pop5 | SID104189866 | – | 7768 | – | 2690 | – | inactive |
| CG32548 | SID104199419 | – | 21549 | – | 10816 | – | inactive |
| CG32548 | SID104199774 | – | 2874 | 6299 | 761 | 2032 | inactive |
| AcCoAS | SID104191269 | – | 3866 | – | 1922 | – | inactive |
| AcCoAS | SID104191395 | – | 3360 | – | 951 | – | inactive |
| AcCoAS | SID104202209 | – | 7.03e5 | 7.37e5 | 2.09e5 | 2.41e5 | inactive |
| COX5B | SID104181907 | – | 3337 | 8400 | 763 | 2384 | inactive |
| ush | SID104180635 | – | 8971 | – | 5164 | – | inactive |
| pot | SID104199642 | – | 2609 | 6554 | 1129 | 2608 | inactive |
| CG13998 | SID104182122 | – | 2370 | 6397 | 968 | 1185 | inactive |
| CG32425 | SID104191531 | – | 11226 | – | 2769 | – | inactive |
| CG32425 | SID104191556 | – | 5340 | – | 2219 | – | inactive |
| LBR | SID104184090 | – | 19344 | – | 4861 | – | inactive |
| rtp | SID104191924 | – | 4533 | – | 875 | – | inactive |
| CG4631 | SID104182558 | – | 6951 | 9802 | 1693 | 5046 | inactive |
| CG4631 | SID104201733 | – | 8.26e5 | 7.86e5 | 3.91e5 | 3.84e5 | inactive |
| CG14540 | SID104194676 | – | 14954 | – | 13633 | – | inactive |
| Mtr3 | SID104190745 | – | 15638 | – | 4589 | – | inactive |
| NO66 | SID104198044 | – | 2796 | 8800 | 1217 | 2605 | inactive |
| CG5196 | SID104195527 | – | 16628 | – | 3592 | – | inactive |
| CG10904 | SID104183876 | – | 3896 | 8275 | 993 | 2699 | inactive |
| viaf | SID104190118 | – | 4849 | – | 2332 | – | inactive |
| olf186-M | SID104187449 | – | 6680 | – | 1952 | – | inactive |
| CG7065 | SID104198212 | – | 3527 | 7268 | 1143 | 1785 | inactive |
| Reps | SID104182732 | – | 2194 | 4867 | 807 | 2729 | inactive |
| CG1572 | SID104199478 | – | 2956 | 8017 | 1446 | 3237 | inactive |
| bor | SID104196707 | – | 17290 | – | 4141 | – | inactive |
| CG12069 | SID104194262 | – | 9129 | – | 3175 | – | inactive |
| tgo | SID104196869 | – | 4089 | – | 1523 | – | inactive |
| CG13082 | SID104181978 | – | 1543 | 3121 | 460 | 1635 | inactive |
| Cpr64Ac | SID104188254 | – | 5577 | – | 3271 | – | inactive |
| CG8915 | SID104199911 | – | 2916 | 9191 | 1051 | 3377 | inactive |
| CG7148 | SID104191594 | – | 5207 | – | 2400 | – | inactive |
| Tsp2A | SID104198376 | – | 19024 | – | 16715 | – | inactive |
| CG9263 | SID104182968 | – | 2011 | 9099 | 1275 | 4024 | inactive |
| CG31787 | SID104181424 | – | 20589 | – | 10938 | – | inactive |
| CG2202 | SID104199633 | – | 5113 | 12123 | 1821 | 4357 | inactive |
| CG31482 | SID104192374 | – | 11051 | – | 3085 | – | inactive |
| CG15177 | SID104192349 | – | 7154 | – | 2704 | – | inactive |
| Fib | SID104184406 | – | 3209 | 6888 | 1002 | 3427 | inactive |
| CG34204 | SID104183689 | – | 16668 | – | 8371 | – | inactive |
| emc | SID104188507 | – | 2601 | – | 684 | – | inactive |
| CG42397 | SID104188939 | – | 3033 | – | 1545 | – | inactive |
| CG30049 | SID104201123 | – | 8.21e5 | 7.31e5 | 8.50e5 | 4.73e5 | inactive |
| Crtc | SID104190370 | Wg reporter activity raised | 9178 | – | 1300 | – | active |
| ash1 | SID104191117 | – | 13104 | – | 1924 | – | inactive |
| CG11679 | SID104199207 | – | 3688 | 5697 | 1194 | 1584 | inactive |
| cv | SID104197625 | – | 17440 | – | 7770 | – | inactive |
| CG8026 | SID104186847 | – | 11280 | 7.96e5 | 1652 | 3.61e5 | inactive |
| CG8026 | SID104186848 | – | 2849 | 9634 | 752 | 3569 | inactive |
| CG10038 | SID104193970 | – | 6533 | – | 2844 | – | inactive |
| lncRNA:bxd | SID104192968 | – | 4760 | – | 2023 | – | inactive |
| Fs | SID104186050 | – | 10138 | – | 2533 | – | inactive |
| Fs | SID104186051 | – | 5280 | – | 1688 | – | inactive |
| CG13982 | SID104182106 | – | 1984 | 3602 | 912 | 896 | inactive |
| CG13230 | SID104186142 | – | 5552 | – | 3440 | – | inactive |
| CG31230 | SID104201684 | – | 8.64e5 | 8.44e5 | 3.66e5 | 3.77e5 | inactive |
| Blos4 | SID104189943 | – | 10141 | – | 4470 | – | inactive |
| hog | SID104198849 | – | 2930 | – | 1089 | – | inactive |
| CG12702 | SID104199279 | – | 22220 | – | 1536 | – | inactive |
| Efhc1.2 | SID104185819 | – | 9140 | – | 2893 | – | inactive |
| CG14262 | SID104194549 | – | 5906 | – | 4531 | – | inactive |
| CG31086 + CG31323 | SID104194694 | – | 25528 | – | 24475 | – | inactive |
| Nep7 | SID104195622 | – | 5351 | – | 2067 | – | inactive |
| CG18231 | SID104190099 | – | 7654 | – | 2487 | – | inactive |
| Mst36Fa | SID104201277 | – | 8.08e5 | 7.32e5 | 3.85e5 | 3.62e5 | inactive |
| CG43339 | SID104182258 | – | 8272 | – | 2717 | – | inactive |

Laid out differently: results already given
{"gene": "Mtr3", "PubChem SID": "SID104190745", "firefly reporter light, replicate 1": 15638, "Renilla control light, replicate 1": 4589, "Outcome": "inactive"}
{"gene": "NO66", "PubChem SID": "SID104198044", "firefly reporter light, replicate 1": 2796, "firefly reporter light, replicate 2": 8800, "Renilla control light, replicate 1": 1217, "Renilla control light, replicate 2": 2605, "Outcome": "inactive"}
{"gene": "CG5196", "PubChem SID": "SID104195527", "firefly reporter light, replicate 1": 16628, "Renilla control light, replicate 1": 3592, "Outcome": "inactive"}
